Data on 119 compounds can be found in PubChem BioAssay AID1508615 (Milbrandt Lab, Department of Genetics, Washington …, 2020).

Amino acid sequences for entries named in this document (tags omitted). A change or cut given only in a name is not applied to a line headed by its entry.
UniProt Q6SZW1: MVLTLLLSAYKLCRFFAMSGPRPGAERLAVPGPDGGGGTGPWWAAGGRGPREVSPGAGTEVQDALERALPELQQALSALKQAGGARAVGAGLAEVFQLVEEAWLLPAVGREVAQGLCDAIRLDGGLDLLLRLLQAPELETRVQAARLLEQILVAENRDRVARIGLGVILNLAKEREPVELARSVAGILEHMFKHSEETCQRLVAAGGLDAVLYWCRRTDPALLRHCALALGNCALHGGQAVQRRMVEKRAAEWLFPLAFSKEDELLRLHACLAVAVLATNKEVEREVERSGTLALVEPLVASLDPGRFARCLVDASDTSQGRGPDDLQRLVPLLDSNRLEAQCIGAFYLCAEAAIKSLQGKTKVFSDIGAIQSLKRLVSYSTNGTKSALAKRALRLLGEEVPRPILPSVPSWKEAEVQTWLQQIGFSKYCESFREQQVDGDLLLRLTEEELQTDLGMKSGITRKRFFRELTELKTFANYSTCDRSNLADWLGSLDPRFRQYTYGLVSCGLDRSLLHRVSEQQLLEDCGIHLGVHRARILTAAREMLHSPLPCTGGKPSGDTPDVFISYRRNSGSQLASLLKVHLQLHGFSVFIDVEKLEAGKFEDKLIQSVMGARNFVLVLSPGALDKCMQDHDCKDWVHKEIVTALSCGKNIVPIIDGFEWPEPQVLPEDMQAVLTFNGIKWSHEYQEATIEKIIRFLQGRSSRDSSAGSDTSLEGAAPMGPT

Out of some 1,600 compounds screened, about 20 (1%) were called active.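 The calls were made as follows: active = ratio of uncleaved NAD to its breakdown product ADP-ribose above 4, meaning the enzyme was inhibited; inactive = the rest.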 The list shows a part of the results.

This test has as its target NAD(+) hydrolase SARM1 (Homo sapiens) (UniProt Q6SZW1). As to the kind of experiment: inhibition of SAM-TIR NAD hydrolysis to ADPR – cell lysate, HPLC readout, primary screen (AID 1508615).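 Also: substrate NAD at 5 µM with 60 min at 37 °C.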 The following applies: HEK293T SAM-TIR lysate, NAD/ADPR ratio by HPLC; at 5 µM; active compounds read high.
With `C(=N\n1cnnc1)/c1ccc2c(c1)CCC2`, the NAD/ADPR ratio was inactive: 3.

In the case of `OC(COc1cccc2ccccc12)CN1CCN(c2ccccc2Cl)CC1` (centres undefined), the NAD/ADPR ratio was inactive: 3.

Regarding `O=c1[nH]c2c(cnn2-c2ccc(Cl)cc2)c(=O)n1-c1cccc(Cl)c1`, the NAD/ADPR ratio is inactive: 3.

`CCN(CC)CCN=c1c(C)nc(C#N)c(N)n1O`: the NAD/ADPR ratio was inactive: 3. `CSc1c(N(C)C)c(=O)c1=S`: the NAD/ADPR ratio is inactive: 3.

Take `Cc1ccccc1NC(=O)C(=O)Nc1ccccc1C`: the NAD/ADPR ratio was inactive: 3. The figure for `O=c1cc(CO)[nH]nc1CO` is inactive: 3; for `CN(C)c1nc(=NCc2ccco2)ss1` it is active: 9.7. With `Cn1ncc2c(Nc3ccccc3Cl)nc(Nc3ccccc3Cl)nc21`, the NAD/ADPR ratio is inactive: 3.

For the compound `CN(C)c1ccc2c(c1)Sc1cc(N(C)C)ccc1N2C(=O)c1ccccc1`, the NAD/ADPR ratio was inactive: 3. As for `CC1=C(c2ccccc2)C=NNCC1=O`, the figure is inactive: 3; as for `O=C(Nc1cccc2c1N(C(=O)c1ccco1)CCC2)c1ccco1`, inactive: 3. As for `CCC(C)Nc1nc2c(c(=O)n(C)c(=O)n2C)n1C` (centres undefined), the figure is inactive: 3; as for `O=[N+]([O-])c1[nH]cnc1/C=C/c1ccccc1`, inactive: 3; as for `CC(O)c1nc2c(c(=O)n(C)c(=O)n2C)n1C` (centres undefined), inactive: 3. As to `NC(=O)c1ccccc1OCC(=O)Nc1ccc(Cl)c(Cl)c1`, the NAD/ADPR ratio is inactive: 3. Turning to `O=C(NC(=S)Nc1cccc2c(O)cccc12)c1cccc(Br)c1`, the NAD/ADPR ratio was inactive: 3. In the case of `CCOc1cc2c(Cl)ncnc2c(OCC)c1OCC`, the NAD/ADPR ratio is inactive: 3. As for `CCOC(=O)Nc1ccc2nc(N3CCCCCC3)sc2c1`, the figure is inactive: 3; as for `CC(C)(C)c1ccc(OC(=O)c2ccccc2)cc1`, inactive: 3. The figure for `Cn1nc(SCc2ccccc2)c(=O)n(C(c2ccccc2)c2ccccc2)c1=O` is inactive: 3; for `O=C(c1ccccc1)C1C(c2ccccc2)C1[N+](=O)[O-]` (centres undefined) it is active: 5.3; for `NC(=O)c1cc(C(N)=O)nc(Cl)n1` it is inactive: 3. As for `NS(=O)(=O)c1cc2c(cc1Cl)NC(Cc1ccccc1)NS2(=O)=O` (centres undefined), the figure is inactive: 3; as for `Cc1ccc(N2CCN(CC(O)COc3cccc(C)c3)CC2)cc1` (centres undefined), inactive: 3; as for `CNC1(C(N)=O)CCNCC1`, inactive: 3. In the case of `O=C1CSC(c2cccs2)N1c1nncs1` (centres undefined), the NAD/ADPR ratio was inactive: 3. In the case of `COc1cc(C2c3cc4c(cc3C(OC3OC5COC(c6cccs6)OC5C(O)C3O)C3COC(=O)C23)OCO4)cc(OC)c1O` (centres undefined), the NAD/ADPR ratio was inactive: 3.

Take `O=[N+]([O-])c1cc2cccnc2c2ncccc12`: the NAD/ADPR ratio is inactive: 3.

As for `CCCn1cnc2c(Sc3c([N+](=O)[O-])ncn3C)nc(N)nc21`, the NAD/ADPR ratio was inactive: 3.

As for `CN(/N=N/c1nc[nH]c1C(=O)NN)C1CCCCC1`, the NAD/ADPR ratio is inactive: 3.

In the case of `CC(=O)Oc1ccc(OC(C)=O)c2c1CC(C)=C(C)C2`, the NAD/ADPR ratio is inactive: 3.

On to `CCOC(=O)c1cc(-c2ccccc2)nc2ccc(C)cc12`, for which the NAD/ADPR ratio is inactive: 3. `CCOc1nsc(OCC)n1`: the NAD/ADPR ratio is inactive: 3. The figure for `COc1cccc(OCC(O)CN2CCN(c3ccc(Cl)cc3)CC2)c1` (centres undefined) is inactive: 3; for `S=C(SCc1cc(Cl)cc2c1OCOC2)N1CCSCC1` it is inactive: 2.4. The figure for `C=CCN1CCN(c2ccncc2S(=O)(=O)N2CCN(C)CC2)CC1` is inactive: 3; for `CCOC(=O)C(C)c1c(C(=O)c2ccc(C)nc2)c2ccccc2n1C` (centres undefined) it is inactive: 3. The figure for `CN(C)c1ccc(/C=N/NC(=O)c2cnc3ccccc3c2)cc1` is inactive: 3; for `O=c1cc(-c2ccccc2)oc2ccc(O)cc12` it is inactive: 3.

Turning to `O=C1CCCc2cc3c(cc21)CC1(C3)Cc2cc3c(cc2C1)C(=O)CCC3`, the NAD/ADPR ratio is inactive: 3. The figure for `S=c1[nH]c2ccc(Cl)cc2s1` is inactive: 3. As for `O=c1[nH]c2nc(Cl)nc(Cl)c2[nH]1`, the figure is inactive: 3; as for `C(=C\CSc1ccccn1)/CSc1ccccn1`, inactive: 3; as for `O=C(Nc1ccc(Cl)c([N+](=O)[O-])c1)Nc1nc2ccccc2s1`, inactive: 3. On to `Cc1cc(NC(=O)OC(C)C)ccc1-c1ccc(NC(=O)OC(C)C)cc1C`, for which the NAD/ADPR ratio is inactive: 3.

For the compound `CN(C(=O)c1ccncc1)c1ccccc1`, the NAD/ADPR ratio was inactive: 3. The figure for `CC(C)c1ccc(-c2nc3ccccc3s2)cc1` is inactive: 3. Take `O=C(O)CSc1nc2ccccc2s1`: the NAD/ADPR ratio is inactive: 3. As for `CN(C)c1nc(Cl)nc2c1nc(Cl)n2C1CCCCO1` (centres undefined), the figure is inactive: 3.

On to `Nn1c(Cc2ccccc2)nnc1Cc1ccccc1`, for which the NAD/ADPR ratio was inactive: 3.

For `CCOC(=O)c1cc(OCC)c2c(ccc3ccccc32)n1`, the NAD/ADPR ratio was inactive: 3.

With `O=Nc1c(-c2cccc([N+](=O)[O-])c2)nc2ncccn12`, the NAD/ADPR ratio is inactive: 3. The figure for `Cc1ccc([N+](=O)[O-])cc1NC(=O)Nc1cccc(F)c1` is inactive: 3. As for `NC(CSC1(c2cccc3ccccc23)c2ccccc2-c2ccccc21)C(=O)O` (centres undefined), the NAD/ADPR ratio was inactive: 3. In the case of `CS/C(=N\S(=O)(=O)c1ccccc1)NNC(=O)c1c(-c2c(Cl)cccc2Cl)noc1C`, the NAD/ADPR ratio was inactive: 3.

With `S=c1[nH]cc2cnccn12`, the NAD/ADPR ratio is inactive: 3. Regarding `[NH-]c1ncnc2c1N=C[N+]2=CC=CCO`, the NAD/ADPR ratio is inactive: 3. With `CSc1nc2cc(S(=O)(=O)N3CCCCC3)ccc2s1`, the NAD/ADPR ratio is inactive: 3. The figure for `ClCC(CNCc1ccccc1)c1ccccc1` (centres undefined) is inactive: 3; for `O=C(O)c1ccccc1-n1c2ccccc2c2ccccc21` it is inactive: 3. For the compound `COc1c(C=O)c2c(c(OC)c1OC)-c1ccc(OC)c(=O)cc1C(NC(C)=O)CC2` (centres undefined), the NAD/ADPR ratio was inactive: 3. Take `CN(C)Cc1cc(C(F)(F)F)ccc1C(O)(c1ccccc1)c1ccccc1`: the NAD/ADPR ratio is inactive: 3. As for `O=c1ccnc(Nc2ccc(Cl)cc2)[nH]1`, the figure is inactive: 3. The figure for `CCNc1nc(NC(C)C)nc(-c2ccncc2)n1` is inactive: 3; for `N/C(CC(=O)Nc1cc(C(F)(F)F)ccc1Cl)=N\O` it is inactive: 3. The figure for `CCOC(=O)c1nn(-c2ccccc2)cc1O` is inactive: 3; for `Cc1c(NC(=O)Nc2c(Cl)cccc2Cl)c(=O)n(-c2ccccc2)n1C` it is inactive: 3; for `Nc1nc(Cl)cc(Nc2ccccc2Cl)n1` it is inactive: 3. Consider `CC1=NC(C)(C)CC2CCC(O)C12` (centres undefined), for which the NAD/ADPR ratio was inactive: 3.

For the compound `O=c1nc(Oc2ccccc2)nc2ncccn12`, the NAD/ADPR ratio was inactive: 3.

On to `CCC(C)n1c(C)cc(=O)n1C(C)CC` (centres undefined), for which the NAD/ADPR ratio was inactive: 3.

Regarding `c1ccn(CCc2ccncc2)c1`, the NAD/ADPR ratio was inactive: 3. On to `CCSc1nc(C)c(C)c(=O)[nH]1`, for which the NAD/ADPR ratio was inactive: 3. The figure for `CN(C)c1ccc(/C=C/C(=O)c2cc(Cl)ccc2O)cc1` is inactive: 3; for `NC1(N2SC(S)=C3CCCC=C32)CCCCC1` it is inactive: 3. `Cc1cccn2c(=S)[nH]nc12`: the NAD/ADPR ratio is inactive: 3. The figure for `COc1ccc(CC(=O)c2ccc(O)cc2O)cc1` is inactive: 3; for `O=C(O)c1ccc2c(c1Sc1ccccc1)C(=O)c1ccccc1C2=O` it is inactive: 3. Consider `CCOC(=O)c1nc2sc3c(c2c(=O)[nH]1)CCCC3`, for which the NAD/ADPR ratio was inactive: 3. The figure for `CCOC(=O)CCCN(c1[nH]c(C)c(C)c1C#N)S(=O)(=O)c1ccc(C)cc1` is inactive: 3; for `OC(COc1ccc(Cl)cc1)CN1CCN(c2cccc(Cl)c2)CC1` (centres undefined) it is inactive: 3; for `CCOC(=O)/C(=N\O)C1=CSC2=NNC(C)(C)N12` it is inactive: 3. The figure for `CCCCOc1ccc(OC(=O)Nc2cc(Cl)ccc2OC)cc1` is inactive: 3. The figure for `Oc1ccc(Cc2ccc(Cl)cc2)c(O)c1` is inactive: 3; for `CCOC(=O)c1c(C)nc(C)c(C(=O)OCC)c1-c1ccc(OC)cc1` it is inactive: 3; for `CSc1ncc2ncn(C3OC(CO)C(O)C3O)c2n1` (centres undefined) it is inactive: 3. Consider `Cc1cc(O)c(-c2cc(O)c(C)cc2O)cc1O`, for which the NAD/ADPR ratio is active: 5.8. `COc1ccc2c3c([nH]c2c1)C1CC2C(CC(O)C(OC)C2C(=O)O)CN1CC3` (centres undefined): the NAD/ADPR ratio was inactive: 3. As for `CC(=O)Nc1nc(C)c(CCC2OCCO2)c(=O)[nH]1`, the figure is inactive: 3; as for `CCC(CNc1cc(OC)cc2cccnc12)NC1CCCCC1` (centres undefined), inactive: 3; as for `Clc1ccc(Nc2nnc(-c3ccc4c(c3)OCO4)o2)cc1`, inactive: 3. Turning to `CCOC(=O)CC(=O)NC(C)(C)CCCCC(C)(C)NC(=O)CC(=O)OCC`, the NAD/ADPR ratio was inactive: 3.

On to `C(=C\c1ccncc1)/c1ccncc1`, for which the NAD/ADPR ratio is inactive: 3.

In the case of `NC(N)=NC(N)=Nc1ccc(O)cc1`, the NAD/ADPR ratio was inactive: 3. In the case of `Cn1c2c(c(=O)n(C)c1=O)NC1(N2)C(=O)Nc2ccccc21` (centres undefined), the NAD/ADPR ratio was inactive: 3. Regarding `COc1ccc(/C=C2\CCOC2=O)cc1`, the NAD/ADPR ratio is inactive: 3.

For `Cc1nnc2nc(-c3ccccc3)nc(-c3ccccc3)n12`, the NAD/ADPR ratio was inactive: 3. As for `CC(=O)NCC1(O)CCCC(C)C1` (centres undefined), the figure is inactive: 3.

With `C=CCc1ccccc1OCC(=O)O`, the NAD/ADPR ratio was inactive: 3. As for `CSc1ccc2c(c1)C(N1CCN(C)CC1)Cc1ccccc1S2` (centres undefined), the figure is inactive: 3. Take `O/N=C(/c1ccccc1)c1ccc2c3c(cccc13)CC2`: the NAD/ADPR ratio was inactive: 3.

For `CCOCc1cc(=O)[nH]c(SC)n1`, the NAD/ADPR ratio is inactive: 3.

On to `CC(=O)n1cc(C2CC(=O)OC3=C2CC(=O)C(C)(C)C3)c2ccccc21` (centres undefined), for which the NAD/ADPR ratio is inactive: 3.

Consider `CC(=O)Nc1cc(NC(C)=O)ncn1`, for which the NAD/ADPR ratio was inactive: 3. As for `Cc1c(C#N)c2n(c1C)CCCC(=O)N2`, the figure is inactive: 3; as for `OC(COc1ccccc1)CN1CCN(c2ccccc2)CC1` (centres undefined), inactive: 3; as for `C1=Cc2ccccc2Nc2ccccc21`, inactive: 3. On to `CC(=O)NCC(O)c1ccc([N+](=O)[O-])cc1` (centres undefined), for which the NAD/ADPR ratio is inactive: 3. On to `O=c1nccc(SCc2ccc(Cl)cc2Cl)[nH]1`, for which the NAD/ADPR ratio was inactive: 3. As for `Cc1cc(C)c(C#N)c(Sc2nc(C)c([N+](=O)[O-])c(C)c2C#N)n1`, the figure is inactive: 3; as for `CC(=O)OC1COC(OC(C)=O)CO1` (centres undefined), inactive: 3. For the compound `Oc1ccc2ccc3[nH]cnc3c2c1`, the NAD/ADPR ratio is inactive: 3.

As for `Cn1c(=O)c2c(nc(Oc3ccccc3)n2C)n(C)c1=O`, the NAD/ADPR ratio is inactive: 3. For `NC(=Nc1nc(-c2ccccn2)cc2ccccc12)c1ccccn1`, the NAD/ADPR ratio is inactive: 3. Regarding `O=C(O)c1cncc(Br)c1`, the NAD/ADPR ratio was inactive: 3. On to `O=C(NCc1ccco1)Nc1cccc([N+](=O)[O-])c1`, for which the NAD/ADPR ratio was inactive: 3. The figure for `O=c1[nH]c(=S)[nH]cc1Oc1ccc(Cl)cc1Cl` is inactive: 3; for `O=C(Nc1ncc([N+](=O)[O-])s1)c1cccc([N+](=O)[O-])c1` it is inactive: 3.
